Reference: the supplement of paper PMC10849652
Some of the results follow.

By UniProt entry, the sequences of proteins in these tests, tags left out. Where a name states a change or a piece, a line headed by the entry shows the natural chain unless it says otherwise.
UniProt Q96IR2: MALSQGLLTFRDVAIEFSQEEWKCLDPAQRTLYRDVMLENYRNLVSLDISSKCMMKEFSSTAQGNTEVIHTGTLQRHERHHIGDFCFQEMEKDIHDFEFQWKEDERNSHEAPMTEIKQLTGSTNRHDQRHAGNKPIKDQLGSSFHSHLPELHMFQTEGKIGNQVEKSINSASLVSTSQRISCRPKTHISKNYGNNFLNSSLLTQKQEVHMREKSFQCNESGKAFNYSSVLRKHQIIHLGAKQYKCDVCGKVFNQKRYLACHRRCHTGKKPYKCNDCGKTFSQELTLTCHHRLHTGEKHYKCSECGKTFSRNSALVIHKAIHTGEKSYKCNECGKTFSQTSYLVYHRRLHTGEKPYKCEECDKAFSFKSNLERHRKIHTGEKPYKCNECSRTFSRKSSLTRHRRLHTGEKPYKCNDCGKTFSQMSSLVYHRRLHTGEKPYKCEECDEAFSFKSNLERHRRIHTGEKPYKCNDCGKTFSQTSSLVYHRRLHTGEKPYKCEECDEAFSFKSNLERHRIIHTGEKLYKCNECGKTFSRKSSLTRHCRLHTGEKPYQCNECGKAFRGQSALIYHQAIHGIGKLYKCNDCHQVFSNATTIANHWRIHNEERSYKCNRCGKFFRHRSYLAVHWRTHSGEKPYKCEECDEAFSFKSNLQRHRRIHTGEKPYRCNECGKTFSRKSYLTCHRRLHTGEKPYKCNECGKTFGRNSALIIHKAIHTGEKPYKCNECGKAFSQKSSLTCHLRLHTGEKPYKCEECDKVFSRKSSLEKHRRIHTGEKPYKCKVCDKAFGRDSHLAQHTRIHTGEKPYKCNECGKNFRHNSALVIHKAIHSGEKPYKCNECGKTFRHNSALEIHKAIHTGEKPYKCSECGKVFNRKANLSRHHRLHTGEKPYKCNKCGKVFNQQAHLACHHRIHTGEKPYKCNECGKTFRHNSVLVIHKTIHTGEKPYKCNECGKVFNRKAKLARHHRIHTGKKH
UniProt P17026: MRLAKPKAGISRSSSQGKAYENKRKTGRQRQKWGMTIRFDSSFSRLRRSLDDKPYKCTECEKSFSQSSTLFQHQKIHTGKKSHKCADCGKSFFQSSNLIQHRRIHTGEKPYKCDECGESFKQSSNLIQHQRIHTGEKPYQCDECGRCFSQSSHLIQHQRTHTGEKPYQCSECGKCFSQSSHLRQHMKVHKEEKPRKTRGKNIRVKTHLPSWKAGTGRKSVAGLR
UniProt Q86UK7: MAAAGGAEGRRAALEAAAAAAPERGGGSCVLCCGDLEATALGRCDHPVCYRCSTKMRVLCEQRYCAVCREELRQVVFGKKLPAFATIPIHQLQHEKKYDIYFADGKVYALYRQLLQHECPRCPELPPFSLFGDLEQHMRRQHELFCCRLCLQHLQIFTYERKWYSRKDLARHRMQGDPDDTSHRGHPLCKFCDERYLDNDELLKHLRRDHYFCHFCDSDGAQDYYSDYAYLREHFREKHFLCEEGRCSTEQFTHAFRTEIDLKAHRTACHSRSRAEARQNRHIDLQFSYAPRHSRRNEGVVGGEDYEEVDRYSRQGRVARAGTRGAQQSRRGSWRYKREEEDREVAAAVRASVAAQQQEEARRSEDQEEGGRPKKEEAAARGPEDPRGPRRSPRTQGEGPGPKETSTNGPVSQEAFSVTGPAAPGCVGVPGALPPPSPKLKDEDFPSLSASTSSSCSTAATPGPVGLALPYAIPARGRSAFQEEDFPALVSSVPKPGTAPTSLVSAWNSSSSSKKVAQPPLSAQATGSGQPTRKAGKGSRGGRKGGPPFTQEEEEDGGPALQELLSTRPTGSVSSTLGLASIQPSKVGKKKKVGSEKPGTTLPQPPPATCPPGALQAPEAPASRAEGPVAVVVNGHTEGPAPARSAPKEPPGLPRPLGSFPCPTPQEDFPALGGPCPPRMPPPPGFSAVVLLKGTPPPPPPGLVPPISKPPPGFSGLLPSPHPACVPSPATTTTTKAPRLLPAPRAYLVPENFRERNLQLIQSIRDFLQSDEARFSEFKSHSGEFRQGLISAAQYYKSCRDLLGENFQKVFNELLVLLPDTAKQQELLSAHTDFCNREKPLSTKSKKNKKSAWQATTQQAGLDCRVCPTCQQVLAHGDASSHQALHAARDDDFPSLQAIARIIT
UniProt Q9H4I2: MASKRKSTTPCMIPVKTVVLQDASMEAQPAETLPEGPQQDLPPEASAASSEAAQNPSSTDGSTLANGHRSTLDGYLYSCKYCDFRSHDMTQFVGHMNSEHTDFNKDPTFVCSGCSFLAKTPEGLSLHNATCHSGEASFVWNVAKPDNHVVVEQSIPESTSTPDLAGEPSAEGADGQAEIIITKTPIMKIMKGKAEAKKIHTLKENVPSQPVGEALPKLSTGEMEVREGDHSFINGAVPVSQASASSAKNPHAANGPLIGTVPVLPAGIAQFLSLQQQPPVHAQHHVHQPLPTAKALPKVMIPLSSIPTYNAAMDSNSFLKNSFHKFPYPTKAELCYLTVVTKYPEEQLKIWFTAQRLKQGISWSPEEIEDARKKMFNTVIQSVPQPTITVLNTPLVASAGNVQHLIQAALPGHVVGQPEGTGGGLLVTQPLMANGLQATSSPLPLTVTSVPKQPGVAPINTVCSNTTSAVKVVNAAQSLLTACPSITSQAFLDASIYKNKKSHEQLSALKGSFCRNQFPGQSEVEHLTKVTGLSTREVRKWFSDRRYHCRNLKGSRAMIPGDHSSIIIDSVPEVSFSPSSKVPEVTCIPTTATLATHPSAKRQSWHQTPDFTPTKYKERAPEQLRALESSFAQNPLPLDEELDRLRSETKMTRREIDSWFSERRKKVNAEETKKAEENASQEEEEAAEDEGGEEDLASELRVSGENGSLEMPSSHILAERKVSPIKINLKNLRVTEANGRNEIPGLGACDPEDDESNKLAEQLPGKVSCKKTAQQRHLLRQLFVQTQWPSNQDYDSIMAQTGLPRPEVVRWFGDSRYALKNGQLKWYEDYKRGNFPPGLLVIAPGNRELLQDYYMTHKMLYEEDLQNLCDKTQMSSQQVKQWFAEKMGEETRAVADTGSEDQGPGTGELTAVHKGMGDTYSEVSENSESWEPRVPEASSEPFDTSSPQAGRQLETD
UniProt Q15942: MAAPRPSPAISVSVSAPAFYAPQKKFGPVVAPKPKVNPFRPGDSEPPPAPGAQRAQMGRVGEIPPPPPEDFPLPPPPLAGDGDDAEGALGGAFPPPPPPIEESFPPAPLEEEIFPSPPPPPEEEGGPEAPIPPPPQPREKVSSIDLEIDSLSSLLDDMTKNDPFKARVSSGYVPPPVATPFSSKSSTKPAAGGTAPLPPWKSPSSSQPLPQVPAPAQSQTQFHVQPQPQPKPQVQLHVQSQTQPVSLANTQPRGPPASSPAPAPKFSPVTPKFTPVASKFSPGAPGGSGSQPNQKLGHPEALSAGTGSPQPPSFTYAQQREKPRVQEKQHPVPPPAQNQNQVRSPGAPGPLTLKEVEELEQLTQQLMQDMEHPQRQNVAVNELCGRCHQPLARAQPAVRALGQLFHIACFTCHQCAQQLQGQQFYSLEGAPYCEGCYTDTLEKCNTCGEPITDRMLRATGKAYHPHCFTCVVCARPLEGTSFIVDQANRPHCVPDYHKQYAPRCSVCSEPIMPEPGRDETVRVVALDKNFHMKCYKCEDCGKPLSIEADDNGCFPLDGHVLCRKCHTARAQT
UniProt Q9NWK9: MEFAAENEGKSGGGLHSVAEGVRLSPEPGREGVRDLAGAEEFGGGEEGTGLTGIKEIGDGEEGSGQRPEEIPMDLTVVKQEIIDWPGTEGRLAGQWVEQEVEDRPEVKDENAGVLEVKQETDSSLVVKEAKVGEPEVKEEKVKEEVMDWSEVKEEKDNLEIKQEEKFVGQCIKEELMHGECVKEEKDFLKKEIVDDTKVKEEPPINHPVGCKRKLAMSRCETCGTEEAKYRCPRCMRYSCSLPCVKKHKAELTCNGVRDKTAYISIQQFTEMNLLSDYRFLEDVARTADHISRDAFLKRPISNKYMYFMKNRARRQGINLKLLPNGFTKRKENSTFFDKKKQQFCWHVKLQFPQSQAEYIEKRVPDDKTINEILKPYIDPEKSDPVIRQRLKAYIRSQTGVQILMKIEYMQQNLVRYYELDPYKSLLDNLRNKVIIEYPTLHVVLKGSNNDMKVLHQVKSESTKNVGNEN
UniProt Q6ZMS4: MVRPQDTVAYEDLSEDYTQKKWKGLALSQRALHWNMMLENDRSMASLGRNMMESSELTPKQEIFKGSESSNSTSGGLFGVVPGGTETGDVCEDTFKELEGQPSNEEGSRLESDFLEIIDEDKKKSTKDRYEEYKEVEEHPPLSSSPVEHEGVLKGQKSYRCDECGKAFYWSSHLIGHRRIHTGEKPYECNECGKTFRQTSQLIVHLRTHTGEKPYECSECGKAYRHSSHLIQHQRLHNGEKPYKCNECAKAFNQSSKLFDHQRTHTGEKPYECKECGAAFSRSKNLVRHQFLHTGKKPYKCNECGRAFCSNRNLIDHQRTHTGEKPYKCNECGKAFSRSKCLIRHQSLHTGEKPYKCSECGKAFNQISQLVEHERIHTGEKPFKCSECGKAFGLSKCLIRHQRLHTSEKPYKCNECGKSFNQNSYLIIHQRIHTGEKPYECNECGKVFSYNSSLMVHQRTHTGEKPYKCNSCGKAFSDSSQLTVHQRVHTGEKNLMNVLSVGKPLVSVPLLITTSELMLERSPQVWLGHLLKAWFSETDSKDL
UniProt A7E2V4, whole entry, looked up: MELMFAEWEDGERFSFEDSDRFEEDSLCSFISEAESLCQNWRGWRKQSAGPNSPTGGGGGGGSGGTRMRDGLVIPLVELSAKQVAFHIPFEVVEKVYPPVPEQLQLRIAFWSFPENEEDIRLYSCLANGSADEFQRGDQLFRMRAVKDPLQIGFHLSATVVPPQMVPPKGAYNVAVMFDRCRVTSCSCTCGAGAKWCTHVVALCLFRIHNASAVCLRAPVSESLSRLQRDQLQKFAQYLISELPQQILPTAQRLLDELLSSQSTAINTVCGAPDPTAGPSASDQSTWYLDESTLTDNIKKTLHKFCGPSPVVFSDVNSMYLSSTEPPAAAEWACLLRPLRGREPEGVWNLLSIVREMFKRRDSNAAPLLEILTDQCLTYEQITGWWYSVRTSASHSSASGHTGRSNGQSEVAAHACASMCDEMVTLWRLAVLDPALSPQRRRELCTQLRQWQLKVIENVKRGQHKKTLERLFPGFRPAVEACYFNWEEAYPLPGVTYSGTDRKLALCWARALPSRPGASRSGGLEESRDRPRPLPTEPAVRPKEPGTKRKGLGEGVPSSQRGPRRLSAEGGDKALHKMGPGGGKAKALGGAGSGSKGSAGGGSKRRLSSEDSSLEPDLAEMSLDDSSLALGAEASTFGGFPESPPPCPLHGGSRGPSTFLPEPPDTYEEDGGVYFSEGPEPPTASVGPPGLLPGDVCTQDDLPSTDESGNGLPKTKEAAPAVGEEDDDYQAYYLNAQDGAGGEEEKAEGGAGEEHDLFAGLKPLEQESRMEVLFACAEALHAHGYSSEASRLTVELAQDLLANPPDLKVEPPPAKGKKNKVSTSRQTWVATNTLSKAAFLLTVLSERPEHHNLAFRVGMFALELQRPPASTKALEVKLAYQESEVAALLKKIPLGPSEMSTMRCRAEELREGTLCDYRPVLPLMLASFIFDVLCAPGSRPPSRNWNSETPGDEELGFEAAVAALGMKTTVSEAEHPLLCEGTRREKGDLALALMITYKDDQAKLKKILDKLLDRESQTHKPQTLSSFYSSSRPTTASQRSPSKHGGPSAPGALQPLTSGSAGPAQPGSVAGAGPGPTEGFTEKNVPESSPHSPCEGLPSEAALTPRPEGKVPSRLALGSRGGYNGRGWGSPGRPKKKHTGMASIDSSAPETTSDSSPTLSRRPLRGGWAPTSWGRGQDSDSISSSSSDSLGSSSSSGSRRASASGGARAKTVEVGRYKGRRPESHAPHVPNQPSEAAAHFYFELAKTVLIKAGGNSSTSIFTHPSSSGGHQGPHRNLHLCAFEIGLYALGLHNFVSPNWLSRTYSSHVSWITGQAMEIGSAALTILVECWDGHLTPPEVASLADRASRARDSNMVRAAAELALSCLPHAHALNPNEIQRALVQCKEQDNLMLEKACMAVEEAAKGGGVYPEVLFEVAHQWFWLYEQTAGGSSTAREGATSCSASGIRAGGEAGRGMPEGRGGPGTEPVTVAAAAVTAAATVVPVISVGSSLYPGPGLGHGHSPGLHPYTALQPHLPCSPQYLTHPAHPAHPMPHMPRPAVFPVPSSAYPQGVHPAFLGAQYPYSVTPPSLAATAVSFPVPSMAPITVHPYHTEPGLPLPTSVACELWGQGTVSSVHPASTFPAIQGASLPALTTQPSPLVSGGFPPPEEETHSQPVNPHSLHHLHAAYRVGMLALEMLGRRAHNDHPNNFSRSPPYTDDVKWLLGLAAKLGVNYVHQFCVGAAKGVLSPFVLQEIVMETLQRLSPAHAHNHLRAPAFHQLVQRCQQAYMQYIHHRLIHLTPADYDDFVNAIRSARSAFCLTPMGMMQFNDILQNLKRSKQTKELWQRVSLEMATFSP

What was measured:
Test in all cases: log2 fold change, soluble protein after heating vs DMSO (PISA); higher = thermal stabilisation; K562 lysate, 10 uM; active = over 0.2 and 3.5 SD of the protein, either way, in both replicates (recomputed)
vemurafenib = compound: CCCS(=O)(=O)Nc1ccc(F)c(C(=O)c2c[nH]c3ncc(-c4ccc(Cl)cc4)cc23)c1F [vemurafenib]
How it was run: (§1)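 To prepare the extract, K562 pellets were dounce-homogenised in PBS pH 7.4 with 1 mM MgCl2, giving crude material at 1 mg/mL protein. This was treated with 10 μM compound for 30 min, then heated in aliquots for 3 min over 48°C-58°C before pooling and addition of NP-40 to 0.5% at 4°C. Centrifugation at 21,000xg for 90 min left soluble protein in the supernatant, which TMTpro 16plex LC-MS/MS quantified with equalised channel sums. Results are log-two fold changes in thermal stability compared with solvent controls, from duplicates.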

[1] = compound: CCCS(=O)(=O)Nc1ccc(F)c(C(=O)c2c[nH]c3ncc(Cl)cc23)c1F
How it was run: as §1

[2] = compound: CC[C@@H]1C(=O)N(C)c2cnc(Nc3ccc(C(=O)NC4CCN(C)CC4)cc3OC)nc2N1C1CCCC1
How it was run: as §1

volasertib = compound: CC[C@@H]1C(=O)N(C)c2cnc(Nc3ccc(C(=O)N[C@H]4CC[C@H](N5CCN(CC6CC6)CC5)CC4)cc3OC)nc2N1C(C)C [volasertib]
How it was run: as §1

[3] = compound: CCn1cc(-c2ccnc3[nH]c(-c4cccc(CN(C)C)c4)cc23)c(-c2ccc(NC(=O)N(C)C)cc2)n1
How it was run: as §1

[4] = compound: CN1CCC(CNc2ccc3ncc(-c4cccc(OC(F)(F)F)c4)n3n2)CC1
How it was run: as §1

saracatinib = compound: CN1CCN(CCOc2cc(OC3CCOCC3)c3c(Nc4c(Cl)ccc5c4OCO5)ncnc3c2)CC1 [saracatinib]
How it was run: as §1

sotrastaurin = compound: CN1CCN(c2nc(C3=C(c4c[nH]c5ccccc45)C(=O)NC3=O)c3ccccc3n2)CC1 [sotrastaurin]
How it was run: as §1

alvocidib = compound: CN1CC[C@H](c2c(O)cc(O)c3c(=O)cc(-c4ccccc4Cl)oc23)[C@H](O)C1 [alvocidib]
How it was run: as §1

defactinib = compound: CNC(=O)c1ccc(Nc2ncc(C(F)(F)F)c(NCc3nccnc3N(C)S(C)(=O)=O)n2)cc1 [defactinib]
How it was run: as §1

[5] = compound: CNc1nc(-c2ccc3c(N)n[nH]c3c2)cc(N2C[C@@H](C(=O)NC3CCCCC3)CC[C@H]2C)n1
How it was run: as §1

encorafenib = compound: COC(=O)N[C@@H](C)CNc1nccc(-c2cn(C(C)C)nc2-c2cc(Cl)cc(NS(C)(=O)=O)c2F)n1 [encorafenib]
How it was run: as §1

[6] = compound: COC(=O)[C@H](CCSC)NC(=O)C1=C(C=C(C=C1)NC[C@H](CS)N)C2=CC=CC=C2
How it was run: as §1

alisertib = compound: COc1cc(Nc2ncc3c(n2)-c2ccc(Cl)cc2C(c2c(F)cccc2OC)=NC3)ccc1C(=O)O [alisertib]
How it was run: as §1

[7] = compound: COc1cc2nc(-c3cc(F)ccc3O)nc(N[C@@H]3CNC[C@H]3C(C)(C)O)c2cc1OC
How it was run: as §1

gefitinib = compound: COc1cc2ncnc(Nc3ccc(F)c(Cl)c3)c2cc1OCCCN1CCOCC1 [gefitinib]
How it was run: as §1

barasertib = compound: CCN(CCCOc1ccc2c(Nc3cc(CC(=O)Nc4cccc(F)c4)[nH]n3)ncnc2c1)CCOP(=O)(O)O [barasertib]
How it was run: as §1

[8] = compound: CCn1c(C(=O)N(C2CC2)C2CC2)cc2c3c(ncn3C)c(Nc3cc(C)n(C)n3)nc21
How it was run: as §1

Tubastatin A = compound: CN1CCc2c(c3ccccc3n2Cc2ccc(C(=O)NO)cc2)C1 [Tubastatin A]
How it was run: as §1

[9] = compound: CNC(=O)C1=CC=CC=C1NC2=NC(=NC=C2Cl)NC3=C(C=C(C=C3)N4CCOCC4)OC
How it was run: as §1

Measured: log2 fold change

ZNF618 (UniProt B1ALC2)
inactive: vemurafenib 0.016 | [1] -0.005 | [2] 0.095 | volasertib 0.073 | [3] 0.108 | [4] 0.037 | saracatinib 0.215 | sotrastaurin -0.008 | alvocidib -0.059 | defactinib 0.068 | [5] 0.031 | encorafenib 0.012 | [6] -0.028 | alisertib -0.027 | [7] -0.019 | gefitinib -0.038

ZNF845 (UniProt Q96IR2)
inactive: vemurafenib 0.085 | [1] -0.024 | barasertib 0.088 | volasertib -0.044 | [8] 0.135 | [3] -0.012 | [4] 0.078 | saracatinib -0.019 | sotrastaurin -0.012 | alvocidib 0.011 | Tubastatin A -0.149 | [9] 0.314 | defactinib -0.001 | [5] 0.093 | alisertib -0.018 | [7] 0.035 | gefitinib 0.035

ZMYM3 (UniProt Q14202)
inactive: vemurafenib 0.048 | [1] 0.002 | barasertib -0.002 | [2] -0.054 | volasertib -0.004 | [8] 0.042 | [3] -0.039 | [4] -0.042 | saracatinib 0.034 | sotrastaurin -0.004 | alvocidib 0.019 | Tubastatin A -0.06 | [9] 0.002 | defactinib 0.029 | [5] -0.024 | encorafenib -0.027 | [6] -0.009 | alisertib -0.148 | [7] 0.016 | gefitinib 0.077

Reprinted from the entries so far (2 entries):
ZNF618 (UniProt B1ALC2)
inactive: vemurafenib 0.016 | [1] -0.005 | [2] 0.095 | volasertib 0.073 | [3] 0.108 | [4] 0.037 | saracatinib 0.215 | sotrastaurin -0.008 | alvocidib -0.059 | defactinib 0.068 | [5] 0.031 | encorafenib 0.012 | [6] -0.028 | alisertib -0.027 | [7] -0.019 | gefitinib -0.038

ZNF845 (UniProt Q96IR2)
inactive: vemurafenib 0.085 | [1] -0.024 | barasertib 0.088 | volasertib -0.044 | [8] 0.135 | [3] -0.012 | [4] 0.078 | saracatinib -0.019 | sotrastaurin -0.012 | alvocidib 0.011 | Tubastatin A -0.149 | [9] 0.314 | defactinib -0.001 | [5] 0.093 | alisertib -0.018 | [7] 0.035 | gefitinib 0.035

Going on with the list.

ZNF22 (UniProt P17026)
inactive: vemurafenib 0.15 | [1] 0.101 | barasertib -0.038 | [2] -0.237 | volasertib -0.019 | [8] -0.031 | [3] 0.02 | [4] -0.002 | saracatinib 0.084 | sotrastaurin 0.076 | alvocidib 0.131 | Tubastatin A 0.1 | [9] -0.019 | defactinib 0.183 | [5] -0.076 | encorafenib 0.064 | [6] -0.112 | alisertib -0.088 | [7] -0.065 | gefitinib 0.011

ZKSCAN8 (UniProt Q15776)
inactive: vemurafenib 0.049 | [1] -0.173 | [2] -0.019 | volasertib -0.17 | [8] -0.001 | saracatinib 0.028 | sotrastaurin 0.027 | Tubastatin A -0.053 | [9] 0.059 | defactinib 0.037 | [5] 0.009 | encorafenib 0.2 | [6] -0.206 | alisertib -0.084 | [7] -0.001 | gefitinib 0

ZNF598 isoform 3 (UniProt Q86UK7)
inactive: vemurafenib 0.022 | [1] 0.036 | barasertib 0.019 | [2] 0.067 | volasertib -0.032 | [8] 0.017 | [3] -0.011 | [4] 0.001 | saracatinib -0.008 | sotrastaurin 0.014 | alvocidib -0.01 | Tubastatin A -0.095 | [9] 0.025 | defactinib 0.004 | [5] 0.015 | encorafenib 0.004 | [6] -0.039 | alisertib 0.009 | [7] 0.012 | gefitinib 0.007

ZNF644 (UniProt Q9H582)
inactive: vemurafenib 0.027 | barasertib 0.045 | [2] 0.047 | [8] -0.136 | [3] -0.05 | [4] -0.023 | saracatinib -0.086 | sotrastaurin 0.013 | alvocidib 0.003 | Tubastatin A -0.038 | [9] -0.058 | defactinib 0.025 | [5] -0.02 | encorafenib 0.028 | [6] -0.011 | alisertib -0.018 | gefitinib -0.024

ZNHIT3 (UniProt Q15649)
inactive: vemurafenib -0.069 | [1] 0.175 | barasertib -0.146 | [2] 0.045 | volasertib 0.014 | [8] 0.014 | [3] 0.062 | [4] 0 | saracatinib 0.023 | sotrastaurin -0.049 | alvocidib -0.028 | Tubastatin A 0.033 | [9] 0.038 | defactinib 0.018 | [5] 0.133 | encorafenib 0.079 | [6] -0.032 | [7] 0.198

ZHX3 (UniProt Q9H4I2)
inactive: vemurafenib 0.019 | [1] 0.146 | barasertib 0.16 | volasertib -0.097 | [8] 0.082 | [3] 0.025 | [4] -0.094 | saracatinib 0.044 | alvocidib -0.015 | Tubastatin A -0.027 | defactinib 0.029 | [5] 0.006 | alisertib -0.096 | [7] 0.048 | gefitinib 0.026

ZMYM2 (UniProt Q9UBW7)
inactive: vemurafenib 0.004 | [1] 0.101 | barasertib -0.016 | [2] -0.034 | volasertib -0.253 | [8] -0.119 | [3] 0.025 | [4] -0.196 | saracatinib 0.018 | sotrastaurin -0.008 | alvocidib 0.076 | Tubastatin A -0.155 | [9] 0.003 | defactinib 0.121 | [5] -0.021 | encorafenib -0.214 | [6] -0.018 | alisertib -0.077 | [7] 0.087 | gefitinib 0.06

ZYX (UniProt Q15942)
inactive: vemurafenib 0.013 | [1] -0.006 | barasertib -0.01 | [2] 0.033 | volasertib 0.041 | [8] -0.022 | [3] -0.034 | [4] 0.033 | saracatinib -0.002 | sotrastaurin -0.02 | alvocidib -0.01 | Tubastatin A 0.047 | [9] 0.008 | defactinib -0.014 | [5] 0.031 | encorafenib -0.021 | [6] -0.075 | alisertib -0.021 | [7] 0.003 | gefitinib 0.012

ZNF407 (UniProt Q9C0G0)
inactive: vemurafenib -0.03 | [1] -0.01 | barasertib 0.26 | [2] 0.152 | volasertib 0.027 | [8] 0.557 | [3] -0.121 | [4] 0.111 | saracatinib -0.225 | alvocidib -0.084 | Tubastatin A 0.099 | [9] 0.004 | defactinib -0.076 | [5] -0.149 | encorafenib -0.008 | [6] -0.035 | [7] 0.098

ZNHIT6 (UniProt Q9NWK9)
inactive: vemurafenib -0.001 | [1] 0.035 | barasertib 0.009 | [2] 0.023 | volasertib -0.016 | [8] 0.05 | [3] 0.089 | [4] -0.071 | saracatinib -0.029 | sotrastaurin -0.005 | alvocidib 0.004 | Tubastatin A -0.046 | [9] 0.034 | defactinib -0.04 | [5] 0.086 | encorafenib 0.037 | [6] 0.118 | alisertib -0.021 | [7] -0.022 | gefitinib 0.008

ZKSCAN4 (UniProt Q969J2)
inactive: vemurafenib 0.157 | [1] -0.228 | volasertib -0.246 | [8] -0.007 | sotrastaurin -0.049 | Tubastatin A -0.127 | [9] 0.053 | defactinib 0.022 | [7] -0.151

ZNF852 (UniProt Q6ZMS4)
inactive: vemurafenib 0.094 | [1] 0.005 | volasertib -0.148 | [3] -0.126 | [4] 0.079 | sotrastaurin 0.104 | alvocidib 0.013 | [9] -0.032 | defactinib 0.056 | [7] -0.096

ZSWIM8 isoform 4 (UniProt A7E2V4)
inactive: vemurafenib -0.173 | barasertib 0.22 | [2] 0.039 | [8] 0.038 | [3] -0.094 | [4] -0.071 | saracatinib 0.018 | sotrastaurin 0.039 | alvocidib 0.078 | Tubastatin A 0.149 | [9] -0.171 | defactinib 0.088 | [5] -0.226 | encorafenib 0.035 | [6] -0.071 | alisertib -0.034 | gefitinib -0.073

ZNF24 (UniProt P17028)
inactive: vemurafenib -0.083 | [1] 0.03 | barasertib -0.037 | [2] 0.015 | volasertib -0.048 | [8] 0.003 | [3] 0.081 | [4] -0.025 | saracatinib -0.017 | sotrastaurin -0.022 | alvocidib 0.041 | Tubastatin A -0.068 | [9] 0.026 | defactinib 0.104 | [5] 0.026 | encorafenib 0.035 | [6] -0.041 | alisertib -0.046 | [7] 0.015 | gefitinib 0.089

ZNF691 (UniProt Q5VV52)
inactive: vemurafenib -0.019 | [1] 0.035 | barasertib 0.005 | [2] 0 | volasertib -0.042 | [8] -0.069 | [3] -0.092 | [4] 0 | saracatinib 0.057 | sotrastaurin -0.039 | alvocidib -0.025 | Tubastatin A 0.001 | defactinib -0.009 | [5] -0.005 | encorafenib 0.024 | [6] -0.005 | [7] 0.008
